Laboratory results reported in patent US20250019435A1.
These are yes or no findings as the source states them, for the method shown. Some results given as binding are weak or reduced against the parent protein; the word gives no strength. Where a sequence is shown, tags or fusion partners need not be part of it.

Chains of the proteins cited; added tags and fusions are not shown. Lines headed by an entry give the natural chain unless they say otherwise; changes in a name come on top. Residues count along the entry.
UniProt Q8N109: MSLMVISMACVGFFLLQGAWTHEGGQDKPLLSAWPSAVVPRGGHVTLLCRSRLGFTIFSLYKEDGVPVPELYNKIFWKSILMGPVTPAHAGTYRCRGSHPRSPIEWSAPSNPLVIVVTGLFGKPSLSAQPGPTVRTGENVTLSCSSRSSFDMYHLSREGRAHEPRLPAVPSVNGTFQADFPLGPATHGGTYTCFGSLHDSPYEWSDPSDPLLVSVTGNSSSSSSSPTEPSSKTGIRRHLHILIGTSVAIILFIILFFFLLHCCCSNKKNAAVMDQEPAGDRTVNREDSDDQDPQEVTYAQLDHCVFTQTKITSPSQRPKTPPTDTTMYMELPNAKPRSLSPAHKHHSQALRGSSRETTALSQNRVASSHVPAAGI
UniProt Q8N743, residues 26-410: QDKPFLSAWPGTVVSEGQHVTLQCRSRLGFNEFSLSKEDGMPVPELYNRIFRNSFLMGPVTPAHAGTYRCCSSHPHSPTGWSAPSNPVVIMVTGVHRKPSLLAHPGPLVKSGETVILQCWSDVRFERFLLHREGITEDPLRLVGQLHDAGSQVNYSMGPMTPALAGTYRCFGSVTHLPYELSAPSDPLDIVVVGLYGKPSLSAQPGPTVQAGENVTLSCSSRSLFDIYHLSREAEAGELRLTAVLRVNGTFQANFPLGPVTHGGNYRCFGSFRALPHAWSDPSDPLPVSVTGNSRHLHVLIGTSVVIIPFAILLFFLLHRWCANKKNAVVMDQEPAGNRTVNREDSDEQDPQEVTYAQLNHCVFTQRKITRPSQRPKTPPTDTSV

Assays:
[1] = molecular target: T1, PVR expressed on transduced cells (PVR-YFP) (UniProt P15151); experiment: flow cytometry, PVR-YFP/3T3 preincubated with the His-tagged proteins, then KIR2DL5-Ig 20 µg/mL
T1 sequence (looked up): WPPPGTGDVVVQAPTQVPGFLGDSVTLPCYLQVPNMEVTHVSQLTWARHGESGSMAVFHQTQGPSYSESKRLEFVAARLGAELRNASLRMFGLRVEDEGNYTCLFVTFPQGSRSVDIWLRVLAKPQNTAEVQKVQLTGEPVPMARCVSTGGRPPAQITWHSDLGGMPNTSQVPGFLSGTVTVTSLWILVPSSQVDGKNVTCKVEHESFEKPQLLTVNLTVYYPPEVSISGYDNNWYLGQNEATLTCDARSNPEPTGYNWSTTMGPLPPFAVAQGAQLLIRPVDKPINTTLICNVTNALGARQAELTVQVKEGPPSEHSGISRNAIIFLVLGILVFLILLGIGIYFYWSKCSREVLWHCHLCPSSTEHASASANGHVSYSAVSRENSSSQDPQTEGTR

[2] = molecular target: T1, PVR expressed on transduced cells (PVR-YFP); experiment: flow cytometry, KIR2DL5-Ig on PVR/3T3 cells preincubated with His-tagged receptors
[3] = molecular target: T1, PVR expressed on transduced cells (PVR-YFP); experiment: intercellular conjugate assay, flow cytometry
[4] = molecular target: T1, PVR expressed on transduced cells (PVR-YFP); experiment: intercellular conjugate assay, PKH26-labelled KIR3DL3/3T3 with eFluor450-labelled PVR/3T3, flow cytometry
[5] = molecular target: T1, PVR expressed on transduced cells (PVR-YFP); experiment: intercellular conjugate assay, PVR/3T3 with KIR3DL3/3T3 (negative control)

Substance | binding [1] | binding [2] | binding [3] | binding [4] | binding [5]
KIR2DL5-Ig fusion protein (KIR2DL5 extracellular domain fused to human IgG1 Fc) (from UniProt Q8N109 22-240) (Fc fusion) | binds | binds |  |  | 
KIR3DL3 expressed on 3T3 cells (from UniProt Q8N743 26-410) (receptor) |  |  | no binding | no binding | no binding
